At least one compound was matched to its structure with a doubt left.
Test system: NCI—H1975 cell line xenograft
Test: In vivo subcutaneous NCI-H1975 xenograft efficacy
Details: nude mice
Protocol: A representative protocol for the in vivo experiment is as followed to establish the subcutaneous NCI—H1975 cell line xenograft model in nude mice and to evaluate the in vivo therapeutic efficacy of the compounds: H1975 cells were cultured in RPMI1640 containing 10% fetal bovine serum, 1% L-glutamine, 100 U/mL penicillinG and 100 μg/mL streptomycin. Cells in logarithmic growth phase were harvested and resuspended in 1×PBS for implantation.
Tumor xenografts were established by injecting tumor cells 5×10^6/mouse into the right flank by sc under sterile conditions. When the tumors reached an appropriate size (100-200 mm^3), mice were randomized into 6 mice per group (8 mice in control group). The tumors were measured using a caliper in two dimensions, length (a), and width (b). […]
The tumor sizes and animal body weights were measured twice a week. […] The parameters for in vivo efficacy evaluation were calculated according to the guidance of SFDA. Percent T/C (%) was calculated with the following formula: T/C (%)=(TRTV/CRTV)×100%, where TRTV and CRTV stand for relative tumor volume in treatment group and vehicle control group, respectively. Relative tumor volume (RTV) was calculated using the formula: RTV=Vt/V0, where Vt represents volume on testing day, and V0 represents volume on first day of treatment. […]

SMILES: C#Cc1cccc(Nc2ncnc3cc(O[C@H]4CCOC4)c(NC(=O)/C=C/CN(CC)CC)cc23)c1 [Compound 20, (S,E)-4-(diethylamino)-N-(4-((3-ethynylphenyl)amino)-7-((tetrahydrofuran-3-yl)oxy)quinazolin-6-yl)but-2-enamide]
- efficacy in the NCI—H1975 xenograft study: good efficacy
